About 22,000 (6.9%) of roughly 320,000 compounds were called active. The inconclusive results got no clear call from the source; some entries with a clear call stand among them for comparison. Calls come from the whole dose curve; as a rule, active = well fitted inhibition curve with a large enough effect; inconclusive = small, poorly fitted or top-dose-only effect, or another doubt; inactive = no such curve, though single readings can be large or run the other way. Where the call is inconclusive, the potency comes from a doubtful curve fit.
experiment: Primary qHTS for delayed death inhibitors of the malarial parasite plastid, 96 hour incubation; settings: P. falciparum luciferase reporter growth; series mostly up to 28.7 µM
Procedure, shortened: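 Parasite growth measured via integrated firefly luciferase reporter in P. falciparum. Infected erythrocytes at 2% hematocrit, 0.05% parasitemia final were treated 96 hours at 37 C under 5% CO2, and luminescence was read.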
Potency is the fitted concentration of half-maximal effect.

Row | SMILES | Potency
1 | O=C(c1c(F)cccc1Cl)N1CCN(c2ccccn2)CC1 | inactive
2 | O=C(CCc1nc2ccccc2c(=O)[nH]1)N1CCN(S(=O)(=O)c2ccccc2Br)CC1 | inconclusive: 7.38 µM [inhibitor, partial curve, poor fit]
3 | COc1ccccc1Nc1nc(C)c(C(=O)Nc2ccccc2)s1 | inconclusive: 13.1 µM [inhibitor, single point]
4 | CCOC(=O)C1CCN(c2cc(=O)n(Cc3ccc(F)cc3)c(=O)[nH]2)CC1 | inconclusive: 2.08 µM [inhibitor, partial curve, poor fit]
5 | c1ccc2c(c1)Sc1ccccc1-n1cnnc1-2 | active: 9.28 µM
6 | CCOC(=O)c1c(NC(=O)CSc2nnnn2C)sc(C)c1C | inconclusive: 18.5 µM [inhibitor, single point]
7 | Cc1ccccc1/C=N/NC(=O)c1cccnc1 | inactive
8 | Cc1cc(C(=O)NNC(=O)c2ccccc2F)c2ccccc2n1 | inactive
9 | CCN1CCc2c(C#N)c(N3CCCCC3)nc(N3CCOCC3)c2C1 | inconclusive: 2.94 µM [inhibitor, partial curve, poor fit]
10 | O=C(N[C@@H](Cc1ccccc1)C(=O)N1CCN(S(=O)(=O)c2cccc(F)c2)CC1)c1ccco1 | inconclusive: 10.4 µM [inhibitor, single point]
11 | O=C(Nc1ncc(Cc2ccccc2)s1)c1cccs1 | inconclusive: 5.22 µM [inhibitor, partial curve, poor fit]
12 | CCOc1ccc(-c2noc(CCC(=O)NCC3CCCO3)n2)cc1OC (stereo unspecified) | inactive
13 | Cc1c(Cl)cccc1S(=O)(=O)Nc1ccnn1C | inactive
14 | O=C(NCC(c1ccco1)N1CCc2ccccc21)c1ccccc1Br (stereo unspecified) | inconclusive: 18.5 µM [inhibitor, single point]
15 | COc1ccc2[nH]cc(CCNC(=O)COc3cc(C)cc4oc(=O)cc(C)c34)c2c1 | inconclusive: 14.7 µM [inhibitor, single point]
16 | CCOC(=O)c1cnc(-n2nc(C)cc2C)nc1NC1CCCC1 | inconclusive: 0.262 µM [inhibitor, full curve, poor fit]
17 | CCOc1cnc(C(=O)NNC(=O)C(Br)C(C)C)o1 (stereo unspecified) | inactive
18 | COc1cc2c(c(OC)c1OC)-c1c(cc3c(c1OC)OCO3)C1OC2[C@@H](C)[C@H]1C (stereo partly specified) | inconclusive: 18.5 µM [inhibitor, single point]
19 | CCCCN1C(=O)N(c2nnc(C(C)(C)C)s2)C(O)C1c1ccc(C)cc1 (stereo unspecified) | active: 10.4 µM
20 | O=C(Cc1ccccc1)NC(c1ccco1)c1c(O)ccc2ccccc12 (stereo unspecified) | inactive
21 | CCOC(=O)N1CCC(NS(=O)(=O)c2ccc3c(c2)oc(=O)n3C)CC1 | inconclusive: 10.4 µM [inhibitor, single point]
22 | Cc1cc(C)n(-c2nc(NCC(C)O)c3c4c(sc3n2)CCCC4)n1 (stereo unspecified) | inconclusive: 1.65 µM [inhibitor, full curve, poor fit]
23 | CC/C=C(/NC(C)=O)c1ccccc1 | inconclusive: 2.94 µM [inhibitor, single point]
24 | O=C(Nc1ccc2oc(-c3cccnc3)nc2c1)c1ccc2c(c1)OCCO2 | inconclusive: 0.329 µM [inhibitor, full curve, poor fit]

5 entries from above, reformatted.

| Row | SMILES | Potency |
| --- | --- | --- |
| 5 | c1ccc2c(c1)Sc1ccccc1-n1cnnc1-2 | active: 9.28 µM |
| 6 | CCOC(=O)c1c(NC(=O)CSc2nnnn2C)sc(C)c1C | inconclusive: 18.5 µM [inhibitor, single point] |
| 7 | Cc1ccccc1/C=N/NC(=O)c1cccnc1 | inactive |
| 8 | Cc1cc(C(=O)NNC(=O)c2ccccc2F)c2ccccc2n1 | inactive |
| 9 | CCN1CCc2c(C#N)c(N3CCCCC3)nc(N3CCOCC3)c2C1 | inconclusive: 2.94 µM [inhibitor, partial curve, poor fit] |

Next part:

Row | SMILES | Potency
25 | CC(=O)c1ccc(NC(=O)CNc2cc(S(=O)(=O)N3CCOCC3)ccc2N2CCCC2)cc1 | inconclusive: 16.5 µM [inhibitor, partial curve, poor fit]
26 | CC(C(=O)N1CCc2ccccc21)N1CCN(S(=O)(=O)c2ccc(C(F)(F)F)cc2)CC1 (stereo unspecified) | inconclusive: 18.5 µM [inhibitor, single point]
27 | CN(C)CCCN(C(=O)COc1ccccc1)c1nc2cc3c(cc2s1)OCO3 | inconclusive: 0.0037 µM [inhibitor, full curve, poor fit]
28 | COc1cccc2c1C(=O)c1c(O)c3c(c(O)c1C2=O)C[C@@](O)(C(=O)CO)C[C@@H]3O[C@H]1C[C@H](N)[C@H](OC2CCCCO2)[C@H](C)O1 (stereo partly specified) | active: 4.26 µM
29 | CC1CC(C)CN(C(=O)c2cccc(N3C(=O)c4ccccc4C3=O)c2)C1 (stereo unspecified) | inconclusive: 3.7 µM [inhibitor, partial curve, poor fit]
30 | Cc1ccc(/C=N/NC(=O)C(NC(=O)c2ccccc2)c2n[nH]c(=O)c3ccccc23)cc1 (stereo unspecified) | inconclusive: 9.28 µM [inhibitor, single point]
31 | NC1=NCC(O)=C1c1nc2ccccc2[nH]1 | inactive
32 | CCOC(=O)C1NN=C(C(=O)c2ccccc2)C1c1ccccc1 (stereo unspecified) | inconclusive: 18.5 µM [inhibitor, single point]
33 | CC(=O)c1ccc(NC(=O)c2cc3ccccc3o2)cc1 | inactive
34 | CCCCn1c(=O)n(CC(=O)Nc2c(CC)cccc2CC)c(=O)c2c1nc(CO)n2CCC | inconclusive: 10.4 µM [inhibitor, single point]
35 | Cc1cc2nc(-c3cc(N4CCOCC4)ccc3[N+](=O)[O-])ccn2n1 | inactive
36 | CCN(CC)C(=O)COc1ccc2c3c(c(=O)oc2c1)CCCC3 | inactive
37 | CCc1ccccc1NC(=O)NC(C)c1ccc2c(c1)OCO2 (stereo unspecified) | inconclusive: 9.28 µM [inhibitor, partial curve, poor fit]
38 | CCn1c(SCC(=O)c2ccc(F)cc2)nnc1-c1ccoc1C | inactive
39 | Nc1nc2c([N+](=O)[O-])cccc2s1 | inactive
40 | CCOC(=O)C1CCCN(c2c(NCC3CCCO3)c(=O)c2=O)C1 (stereo unspecified) | inactive
41 | CCc1ccccc1NC1=NCC(=O)N1C1CCCC1 | inconclusive: 0.262 µM [inhibitor, full curve, poor fit]
42 | Cc1ccc(-c2cc(C(=O)Nc3cc(C(=O)O)ccc3C)c3ccccc3n2)cc1 | inconclusive: 4.15 µM [inhibitor, partial curve, poor fit]
43 | NC(=O)c1ccccc1OCC(=O)N1CCCc2ccccc21 | inactive
44 | O=C(/C=C/c1c(F)cccc1Cl)N1CCc2ccccc2C1 | inconclusive: 18.5 µM [inhibitor, single point]
45 | C=C1SC(Nc2c(C)cc(C)cc2C)=NC12CCCCC2 | inconclusive: 5.22 µM [inhibitor, partial curve, poor fit]
46 | COc1ccccc1N1CCN(C(=O)c2cc3c(=O)n(C)c4ccccc4c3n2C)CC1 | active: 7.38 µM
47 | COc1ccccc1N(CC(=O)Nc1c(C)cccc1C)S(C)(=O)=O | inconclusive: 11.7 µM [inhibitor, partial curve]
48 | NS(=O)(=O)c1ccc(-c2ccc(C=O)o2)cc1 | inactive

Row | SMILES | Potency
49 | COc1ccccc1S(=O)(=O)Cc1ccc(C(=O)NCc2ccc(C)cc2)o1 | inconclusive: 18.5 µM [inhibitor, single point]
50 | O=C(NCCc1nc2ccccc2[nH]1)c1cc([N+](=O)[O-])cc([N+](=O)[O-])c1 | inconclusive: 2.08 µM [inhibitor, full curve]
51 | C/C(=N\NC(=O)CC(C)C)c1ccc(Cl)c(Cl)c1 | inconclusive: 18.5 µM [inhibitor, single point]
52 | O=C(Nc1ccncc1)c1cc(-c2ccccn2)nc2ccccc12 | inconclusive: 9.28 µM [inhibitor, partial curve]
53 | O=C(NCc1ccccc1)C1CC(=O)N(C2CCCCCC2)C1 (stereo unspecified) | inconclusive: 3.7 µM [inhibitor, partial curve, poor fit]
54 | CN1C[C@@H]2C(c3ccc(Cl)nc3)C3(c4cccnc4)CC2(C3)[C@H]1c1ccccc1 (stereo partly specified) | active: 10.4 µM
55 | CCCCOCCCNC(=O)C1CCCCC1 | active: 8.28 µM
56 | C[N+]1(CCCOC(=O)C2(c3ccccc3)CCCC2)CCOCC1 | inconclusive: 2.62 µM [inhibitor, full curve, poor fit]
57 | NNC(=O)c1cc(O)c(O)c(O)c1 | inactive
58 | CCn1c(O)c(C(C#N)=C2N=c3ccccc3=N2)c2ccccc21 | inactive
59 | Cc1ccc(NC(=S)NC(=O)C2CCC2)cc1C | inactive
60 | O=C(NC1CCCCC1)C(c1ccc2ncccc2c1)N(Cc1ccc2c(c1)OCO2)C(=O)c1ccc2c(c1)OCCO2 (stereo unspecified) | inconclusive: 3.29 µM [inhibitor, partial curve, poor fit]
61 | CC(=O)N1CCN(c2ccc(NC(=S)NC(=O)COc3ccc(C(C)(C)C)cc3)cc2)CC1 | inconclusive: 18.5 µM [inhibitor, single point]
62 | CCN(Cc1nc(-c2ccc(OC)c(OC)c2)no1)C(=O)c1ccc2c(c1)OCO2 | inconclusive: 1.65 µM [inhibitor, full curve]
63 | CCOC(=O)Cn1c(=O)oc2cc(S(=O)(=O)N(C)Cc3ccccc3)ccc21 | inactive
64 | O=C(CN(c1ccccc1)S(=O)(=O)c1ccccc1)NCCSCc1ccco1 | inconclusive: 20.8 µM [inhibitor, partial curve, poor fit]
65 | CC1=NN(C(N)=S)C(=O)C1N=Nc1c(C)cc(C)cc1C (stereo unspecified) | active: 4.15 µM
66 | CCOc1ccccc1N(CC(=O)NCC1CCCO1)C(=O)CNS(=O)(=O)c1ccccc1 (stereo unspecified) | active: 14.7 µM
67 | N/C(=N\OC(=O)c1ccc([N+](=O)[O-])cc1Cl)c1ccccn1 | inconclusive: 1.17 µM [inhibitor, partial curve, poor fit]
68 | COc1ccc(-c2c(C)oc3c(CN4CCCCC4C)c(O)ccc3c2=O)cc1OC (stereo unspecified) | active: 11.7 µM
69 | CC(=O)NCC(c1cccs1)S(=O)(=O)c1ccc(F)cc1 (stereo unspecified) | inconclusive: 3.7 µM [inhibitor, full curve]
70 | CC1CCN(S(=O)(=O)c2ccc3[nH]c(=O)[nH]c3c2)CC1 | inactive
71 | O=C1Nc2ccccc2OCc2c1cccc2[N+](=O)[O-] | inactive

Reference: PubChem BioAssay AID504834 (National Center for Advancing Translational Sciences (NCATS), 2011)
